Where “and” joins values, the source holds several entries; their conditions need not be identical. Equal values may be shown once. The campaign covered roughly 400,000 compounds. About 3,700 (0.93%) were called active. The inconclusive results got no clear call from the source; some entries with a clear call stand among them for comparison. Calls follow the shape of the dose curve; as a rule, active = well fitted inhibition curve with a large enough effect; inconclusive = small, poorly fitted or top-dose-only effect, or another doubt; inactive = no such curve, though single readings can be large or run the other way. Potencies beside an inconclusive call are fits to weak or partial responses and may not hold up.
Target: Vitamin D3 receptor (Homo sapiens) (UniProt P11473)
Test: Inhibitors of the vitamin D receptor (VDR): qHTS
Details: VDR-SRC2-3 peptide fluorescence polarization, 2 h; max response, negative = inhibition: stronger effect = lower value
Summary of the method: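 FP read-out; VDR + SRC2-3 coactivator peptide; 23 nl compound by pintool; 2 h RT incubation; reagents held at 4 deg C, protected from light.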
% is scaled to controls: 0 for no effect and ±100 for the full control effect; potency is read from the fitted curve at half-maximal effect.

Amino acid sequences for entries named in this document (tags omitted). A change or cut given only in a name is not applied to a line headed by its entry.
UniProt P11473: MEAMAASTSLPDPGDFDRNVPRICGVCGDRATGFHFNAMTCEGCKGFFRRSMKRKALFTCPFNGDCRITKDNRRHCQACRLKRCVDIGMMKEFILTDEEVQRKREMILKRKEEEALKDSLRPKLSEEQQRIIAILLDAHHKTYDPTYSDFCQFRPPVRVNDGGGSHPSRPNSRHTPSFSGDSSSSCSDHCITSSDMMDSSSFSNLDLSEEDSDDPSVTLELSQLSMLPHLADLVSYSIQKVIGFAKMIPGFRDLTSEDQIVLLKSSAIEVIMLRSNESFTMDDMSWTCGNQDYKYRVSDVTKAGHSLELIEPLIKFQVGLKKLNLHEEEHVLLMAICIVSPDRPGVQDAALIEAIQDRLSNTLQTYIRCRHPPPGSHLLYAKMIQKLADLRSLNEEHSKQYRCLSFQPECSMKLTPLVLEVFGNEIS

Potency, active:
COc1ccc(/C=C2/SC(c3ccc(C)cc3)=NC2=O)cc1OC 50.1 µM, C=C(C)[C@@H]1C2=CC(C(=O)OC)=C(C[C@@H](C(=C)C)[C@H]3O[C@H]3C3=C[C@H]1OC3=O)O2 20 µM, Cc1cccc(-n2c(O)c(C=Nc3ccccc3)c3ccccc3c2=O)n1 31.6 µM

Potency, inconclusive:
CCOC(=O)C1CCN(C(=O)CCc2nnc3ccc(N4CCC(C)CC4)nn23)CC1 31.6 µM [inhibitor, single point], O=C(/C=C/c1ccc([N+](=O)[O-])cc1)NC1CC2CCC1C2 (stereo not drawn) 89.1 µM [inhibitor, single point], O=C(CN1CCc2ccccc21)NC(c1ccccc1)c1ccccc1 56.2 µM [inhibitor, single point], CO/N=C(/C(=O)N[C@@H]1C(=O)N2C(C(=O)O)=C(C[n+]3ccc(N)n3CCO)CS[C@H]12)c1csc(N)n1 25.1 µM [inhibitor, full curve], Cc1ccc(S(=O)(=O)N2CC=C(C(=O)NC3CCCC3)CC2)cc1 8.91 µM [inhibitor, partial curve, poor fit], O=C(N/N=C\c1ccc(Oc2ccccc2)cc1)c1csnn1 79.4 µM [inhibitor, partial curve, poor fit], COc1cc(OC)c(NS(=O)(=O)c2ccc3c(c2)NC(=O)CO3)cc1Cl 39.8 µM [inhibitor, partial curve, poor fit], Cc1cc(C)nc(NNC(=O)NC2CCCCC2)n1 14.1 µM [inhibitor, partial curve, poor fit], CC(=O)Nc1ccc(NC(=O)C(C)OC(=O)c2ccc(OCc3c(C)noc3C)cc2)cc1 (stereo not drawn) 39.8 µM [inhibitor, partial curve], Cn1cccc1C(=O)N1CCC[C@@]2(CCN(C(c3ccccc3)c3ccccc3)C2)C1 79.4 µM [inhibitor, partial curve, poor fit], CC(C)C[C@@H](CO)N1CCN(Cc2ccccc2)CCC1=O 44.7 µM [inhibitor, full curve, poor fit], Cc1ccc(Cl)c(Nc2ccccc2C(=O)O)c1Cl 35.5 µM [inhibitor, full curve] and 70.8 µM [inhibitor, partial curve, poor fit], CC(C)C[C@@H](COc1ccccc1)N1CCN(CCc2ccccc2)CCC1=O 50.1 µM [inhibitor, partial curve, poor fit], CC(=O)c1ccc(NC(=O)CNCC(c2ccccc2)N(C)C)cc1 (stereo not drawn) 70.8 µM [inhibitor, partial curve, poor fit], O=C(NNC(=O)c1cccc(Br)c1)Nc1ccc(Cl)cc1 50.1 µM [inhibitor, partial curve, poor fit], COc1ccc(OCC(=O)Nc2cc(S(=O)(=O)N3CCCC3)ccc2OCC(F)(F)F)cc1 89.1 µM [inhibitor, single point], C=CCOc1ccc(CNc2ccc(NC(=O)CCC)cc2)cc1OCC 70.8 µM [inhibitor, partial curve, poor fit], O=C(Oc1ccc(F)cc1C(=O)/C=C/c1cccs1)c1cccc([N+](=O)[O-])c1 1.12 µM [inhibitor, full curve, poor fit], Cc1ccc(-n2nc(C)c3c2C(Br)C(C)(C)CC3=O)nc1 (stereo not drawn) 89.1 µM [inhibitor, partial curve, poor fit], CCc1ccc(-c2nc(CS(=O)CC(=O)O)c(C)o2)cc1 (stereo not drawn) 11.2 µM [inhibitor, partial curve, poor fit], O=C(CN1C(=O)C2CC=CCC2C1=O)NC1CCCc2ccccc21 (stereo not drawn) 89.1 µM [inhibitor, single point], CCc1c(C)nc(N2CCN(c3ccc(Cl)cc3)CC2)[nH]c1=O 70.8 µM [inhibitor, single point], Cn1c2ccccc2c(=O)c2cc(C#Cc3ccccn3)ccc21 89.1 µM [inhibitor, partial curve, poor fit], C=CCNC(=O)c1cc(Cl)cc(Cl)c1 70.8 µM [inhibitor, single point], C=CCn1c(N)c(C(=O)OCC(C)C)c2nc3ccccc3nc21 79.4 µM [inhibitor, partial curve, poor fit], Cc1ccc(CN2CCC(n3nccc3NC(=O)CCCc3ccccc3)CC2)o1 89.1 µM [inhibitor, single point], O=C(CSc1nnc(-c2cccs2)n1Cc1ccccc1)NCc1ccc2c(c1)OCO2 89.1 µM [inhibitor, single point], CCOC(=O)c1cc(-c2ccc(OC)cc2OC)nn1-c1ccc(C(=O)O)cc1 7.08 µM [inhibitor, partial curve, poor fit], O=C(CSc1ncn[nH]1)c1ccccc1 56.2 µM [inhibitor, partial curve, poor fit], CC(=O)c1ccccc1NC(=O)c1cc(S(=O)(=O)N2CCOCC2)ccc1N1CCCC1 89.1 µM [inhibitor, single point]

Max response, negative = inhibition, inactive:
COC(=O)c1scc(-c2ccc(C)cc2)c1S(=O)(=O)Nc1cc(C)c(Cl)cc1OC 11.9%, CC(C)Oc1ccc(Cn2c(-c3ccco3)n[nH]c2=S)cc1 -14.4%, COC(=O)Nc1ccc([N+](=O)[O-])cc1OC 11.3%, COC(=O)CNC(=O)C(=O)OC 1.82% and -0.321%, CC(C)n1cc(/C=N/NC(=O)COc2cccc3cccnc23)c2ccccc21 -17.7%

Reference: PubChem BioAssay AID504847 (National Center for Advancing Translational Sciences (NCATS), 2011)
